# Results are given in words; binding and its absence hold for the method and conditions named.
# By UniProt entry, the sequences of proteins in these tests, tags left out.
# UniProt P04133: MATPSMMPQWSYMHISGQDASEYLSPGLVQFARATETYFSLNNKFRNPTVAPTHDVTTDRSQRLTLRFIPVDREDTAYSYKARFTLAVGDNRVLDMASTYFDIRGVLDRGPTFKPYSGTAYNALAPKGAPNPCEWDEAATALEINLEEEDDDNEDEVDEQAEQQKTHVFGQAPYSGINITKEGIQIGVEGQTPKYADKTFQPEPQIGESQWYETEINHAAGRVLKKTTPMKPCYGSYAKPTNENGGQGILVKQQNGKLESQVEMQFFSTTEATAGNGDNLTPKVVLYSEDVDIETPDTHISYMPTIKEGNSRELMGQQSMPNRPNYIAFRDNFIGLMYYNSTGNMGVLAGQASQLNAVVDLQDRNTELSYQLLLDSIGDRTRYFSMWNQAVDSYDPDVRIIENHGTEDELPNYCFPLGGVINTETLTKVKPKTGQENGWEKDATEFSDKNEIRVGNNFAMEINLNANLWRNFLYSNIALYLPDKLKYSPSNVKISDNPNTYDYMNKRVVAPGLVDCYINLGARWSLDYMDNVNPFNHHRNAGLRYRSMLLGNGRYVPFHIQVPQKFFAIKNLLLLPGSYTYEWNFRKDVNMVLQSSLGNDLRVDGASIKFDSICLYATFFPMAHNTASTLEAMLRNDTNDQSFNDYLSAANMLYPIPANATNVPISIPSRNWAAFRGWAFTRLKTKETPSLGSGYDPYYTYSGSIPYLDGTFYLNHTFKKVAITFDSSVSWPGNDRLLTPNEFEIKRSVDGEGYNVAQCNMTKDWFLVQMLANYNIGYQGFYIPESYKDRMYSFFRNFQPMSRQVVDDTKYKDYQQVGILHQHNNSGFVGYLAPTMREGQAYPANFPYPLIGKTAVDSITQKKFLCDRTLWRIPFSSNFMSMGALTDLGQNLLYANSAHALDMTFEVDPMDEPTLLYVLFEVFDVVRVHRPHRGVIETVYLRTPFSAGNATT
# UniProt P12538: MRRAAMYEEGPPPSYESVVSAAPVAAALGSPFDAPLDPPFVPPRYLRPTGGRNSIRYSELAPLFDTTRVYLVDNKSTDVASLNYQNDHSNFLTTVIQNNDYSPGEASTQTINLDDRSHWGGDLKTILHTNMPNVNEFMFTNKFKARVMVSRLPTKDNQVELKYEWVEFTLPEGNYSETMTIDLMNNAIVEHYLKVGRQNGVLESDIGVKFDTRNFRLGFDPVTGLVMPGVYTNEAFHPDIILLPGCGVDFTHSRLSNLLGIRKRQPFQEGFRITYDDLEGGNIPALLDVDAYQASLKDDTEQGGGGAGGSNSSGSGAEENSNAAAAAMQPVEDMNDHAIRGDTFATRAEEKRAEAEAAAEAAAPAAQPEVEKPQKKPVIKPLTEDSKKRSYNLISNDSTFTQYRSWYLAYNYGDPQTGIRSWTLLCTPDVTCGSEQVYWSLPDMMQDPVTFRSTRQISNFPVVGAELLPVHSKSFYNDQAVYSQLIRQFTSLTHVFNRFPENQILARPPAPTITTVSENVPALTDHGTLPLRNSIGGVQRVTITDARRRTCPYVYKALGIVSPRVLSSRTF
# Target: Ad5 hexon, in the virion (human adenovirus 5) (UniProt P04133)
# Experiment: co-IP; both purified
substance,measurement,value
Ad5 penton base (from UniProt P12538 1-571),binding,no binding (condition: after heating Ad5 to 49°C)

# Source: publication PMC6461443
